Common to all, as to type: cell-based
The test system of one assay is H2228 cells. The assay is described as follows: Anti-proliferative activity, H2228. Particulars: Homo sapiens, NCI-H2228; NSCLC-ALK; supplement values ± SEM.
The subject of the next assay is HCT-116 cells. The assay is described as follows: Anti-proliferative activity, HCT-116. Particulars: Human Colon Cancer, supplement values ± SEM.
The test system of a further assay is Mia-PaCa2 cells. The assay is described as follows: Anti-proliferative activity, Mia-PaCa2. The note with it: Homo sapiens, MIA PaCa-2, Human Pancreatic Cancer; supplement values ± SEM.
The subject of a further assay is H1975 cells. The assay is described as follows: Anti-proliferative activity, H1975. The note with it: Homo sapiens, NCI-H1975; NSCLC-EGFR LR/TM; supplement values ± SEM.
In another assay the test system is CL-97 cells. The assay can be described thus: Anti-proliferative activity, CL-97. Particulars: CL97; Human Lung Cancer; supplement values ± SEM.

Molecules are shown by their SMILES.

`CO[C@@H]1[C@H](N(C)C(=O)c2ccccc2)C[C@H]2O[C@]1(C)n1c3ccccc3c3c4c(c5c6ccccc6n2c5c31)C(=O)NC4` [PKC412]: the EC50 in the assay on H2228 cells was determined as 609 nM; with HCT-116 cells it was 482 nM; in the assay with Mia-PaCa2 cells it was 995 nM; in the assay on H1975 cells, 517 nM; in the assay on CL-97 cells, 916 nM.

Source of the values: article PMC5349910, “Discovery of BPR1K871, a quinazoline based, multi-kinase inhibitor for the treatment of AML and solid tumors: Rational design, synthesis, in vitro and in vivo evaluation” (Oncotarget, 2016).
